Article doi:10.1101/2022.04.06.487319 (bioRxiv, 2022)
Results are given in words; binding and its absence hold for the method and conditions named. For some of these results: Binding seen in cells or lysates may run through a third protein. Some binding calls cover weakened binding; strength is not graded here. For some of these results: Sequences can lack the tags named with a protein.

How the values were obtained:
[1] = target: T1, strep-Hop1 (SF9 co-expression) (Saccharomyces cerevisiae) (UniProt P20050); assay: pull-down
T1 sequence: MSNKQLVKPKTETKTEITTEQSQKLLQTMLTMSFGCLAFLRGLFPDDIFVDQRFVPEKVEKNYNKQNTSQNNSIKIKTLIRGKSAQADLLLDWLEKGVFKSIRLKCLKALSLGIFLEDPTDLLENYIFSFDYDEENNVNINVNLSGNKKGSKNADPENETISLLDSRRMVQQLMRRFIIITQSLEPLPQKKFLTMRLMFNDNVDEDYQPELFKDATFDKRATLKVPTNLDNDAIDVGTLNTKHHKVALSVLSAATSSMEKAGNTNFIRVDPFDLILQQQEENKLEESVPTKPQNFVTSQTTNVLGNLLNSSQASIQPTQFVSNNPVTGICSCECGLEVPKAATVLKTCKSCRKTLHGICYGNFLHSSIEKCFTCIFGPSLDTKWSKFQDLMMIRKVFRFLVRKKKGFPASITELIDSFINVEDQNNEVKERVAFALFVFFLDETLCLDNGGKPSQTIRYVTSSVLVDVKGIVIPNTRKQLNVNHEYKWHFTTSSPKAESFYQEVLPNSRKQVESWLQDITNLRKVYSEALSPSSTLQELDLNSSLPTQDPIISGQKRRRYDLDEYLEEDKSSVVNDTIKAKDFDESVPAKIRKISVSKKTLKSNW

[2] = target: T2, Mek1-strep (full-length Mek1 with Twin-StrepII tag) (Saccharomyces cerevisiae) (UniProt P24719); assay: pull-down
T2 sequence: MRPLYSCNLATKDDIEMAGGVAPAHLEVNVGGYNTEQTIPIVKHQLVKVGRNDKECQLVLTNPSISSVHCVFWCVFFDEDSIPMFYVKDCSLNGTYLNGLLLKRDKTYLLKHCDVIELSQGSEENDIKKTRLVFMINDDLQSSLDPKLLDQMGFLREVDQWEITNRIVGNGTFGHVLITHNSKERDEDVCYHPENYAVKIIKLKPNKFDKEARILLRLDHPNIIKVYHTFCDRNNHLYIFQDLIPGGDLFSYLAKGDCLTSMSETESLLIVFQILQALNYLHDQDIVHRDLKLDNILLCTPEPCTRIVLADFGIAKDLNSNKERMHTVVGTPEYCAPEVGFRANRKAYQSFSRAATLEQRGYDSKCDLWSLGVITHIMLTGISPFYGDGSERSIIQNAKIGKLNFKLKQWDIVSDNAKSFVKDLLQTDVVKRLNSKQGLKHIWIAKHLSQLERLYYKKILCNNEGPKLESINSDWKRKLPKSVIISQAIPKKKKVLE

[3] = target: T3, strep-Hop1 HORMA domain (Saccharomyces cerevisiae) (UniProt P20050); assay: pull-down
T3 sequence: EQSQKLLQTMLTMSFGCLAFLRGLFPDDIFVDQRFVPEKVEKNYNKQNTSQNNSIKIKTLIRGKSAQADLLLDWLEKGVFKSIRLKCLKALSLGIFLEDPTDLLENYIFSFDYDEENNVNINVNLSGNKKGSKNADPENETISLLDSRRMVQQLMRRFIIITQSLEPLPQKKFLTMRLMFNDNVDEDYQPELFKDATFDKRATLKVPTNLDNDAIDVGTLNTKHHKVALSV

[4] = target: T4, GFP-Mek1 (pGAL1::GFP-MEK1) (Saccharomyces cerevisiae) (UniProt P24719); assay: co-IP
T4 sequence: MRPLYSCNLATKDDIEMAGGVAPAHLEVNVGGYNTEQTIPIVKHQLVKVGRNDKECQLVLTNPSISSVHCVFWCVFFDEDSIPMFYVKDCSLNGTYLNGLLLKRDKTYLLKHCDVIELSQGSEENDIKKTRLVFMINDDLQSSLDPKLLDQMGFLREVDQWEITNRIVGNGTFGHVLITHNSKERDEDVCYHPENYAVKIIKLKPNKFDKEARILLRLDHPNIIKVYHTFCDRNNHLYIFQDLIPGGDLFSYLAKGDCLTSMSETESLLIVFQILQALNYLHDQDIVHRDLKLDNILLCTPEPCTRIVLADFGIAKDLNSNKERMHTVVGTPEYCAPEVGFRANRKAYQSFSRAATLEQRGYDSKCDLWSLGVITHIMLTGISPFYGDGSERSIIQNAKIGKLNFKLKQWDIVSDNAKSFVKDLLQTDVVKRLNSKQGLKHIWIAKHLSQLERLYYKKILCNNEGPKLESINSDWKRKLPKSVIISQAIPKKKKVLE

[5] = target: strep-Hop1 (full length, WT, E. coli) (Saccharomyces cerevisiae) (UniProt P20050); assay: SEC

**Q.** Which binding [1] does the source give for “MBP-Red1^230-345 (from UniProt P14291 230-345) (domain or fragment)” here?
**A.** binds

**Q.** With “MBP-Red1^1-230 (from UniProt P14291 1-230) (domain or fragment)” as the molecule, how does the binding [1] read?
**A.** binds

B1: MBP-Red1^1-230 (domain or fragment, UniProt P14291 1-230)
chain: MEGLKKKIFGVCLKNDLAQTRNETKGIHYGLMTLETSKQLQEFLHLLVIKREVIQNFELLFHIINVAVKITDSNLPSDDIWHFILKLRFSSEINIDEDSKVLNYLLETGIAMENPVSWKCLAVISSILSSVPQSKKIITNLIETEHAKKIGQLFDNIQDLQQGNFLVEILSNCFKKSASNSKKVEKIPQLWQSRSKNKFFFENEFYPFSSKNGSLQTCQFLCNNFMSTLS
**Q.** For B1, which binding [2] is on record?
**A.** binds

B2: MBP-Red1^230-345 (domain or fragment, UniProt P14291 230-345)
chain: SFTGILRQVSYSGSETLKNLRIFKKKDDENSYFIQCIYNKIYLWLDEKAPLEFERKKIRITKNLKNKIQIKLRQPFHECVRTTADKTALLFNKTKGFQLEFEDEKLGETFFHNVNN
**Q.** For B2, which binding [2] is on record?
**A.** binds

B3: MBP-Red1^1-362 (insect cells) (domain or fragment, UniProt P14291 1-362)
chain: MEGLKKKIFGVCLKNDLAQTRNETKGIHYGLMTLETSKQLQEFLHLLVIKREVIQNFELLFHIINVAVKITDSNLPSDDIWHFILKLRFSSEINIDEDSKVLNYLLETGIAMENPVSWKCLAVISSILSSVPQSKKIITNLIETEHAKKIGQLFDNIQDLQQGNFLVEILSNCFKKSASNSKKVEKIPQLWQSRSKNKFFFENEFYPFSSKNGSLQTCQFLCNNFMSTLSFTGILRQVSYSGSETLKNLRIFKKKDDENSYFIQCIYNKIYLWLDEKAPLEFERKKIRITKNLKNKIQIKLRQPFHECVRTTADKTALLFNKTKGFQLEFEDEKLGETFFHNVNNIPKISEVQNFLVLDYIE
**Q.** B3 was tested. Which binding [2] did it give?
**A.** binds

B4: MBP-Red1^1-819/I743R (domain or fragment, UniProt P14291 1-819)
chain: MEGLKKKIFGVCLKNDLAQTRNETKGIHYGLMTLETSKQLQEFLHLLVIKREVIQNFELLFHIINVAVKITDSNLPSDDIWHFILKLRFSSEINIDEDSKVLNYLLETGIAMENPVSWKCLAVISSILSSVPQSKKIITNLIETEHAKKIGQLFDNIQDLQQGNFLVEILSNCFKKSASNSKKVEKIPQLWQSRSKNKFFFENEFYPFSSKNGSLQTCQFLCNNFMSTLSFTGILRQVSYSGSETLKNLRIFKKKDDENSYFIQCIYNKIYLWLDEKAPLEFERKKIRITKNLKNKIQIKLRQPFHECVRTTADKTALLFNKTKGFQLEFEDEKLGETFFHNVNNIPKISEVQNFLVLDYIEEEPENEGEEEEQIGRADEQKEDEEEESLDELSTPMVYPIKSSIPHNHNEKVQLVTPDRSVSIRSDEWDLKSNTEDEEGNVLADLKISSTKETKRQTDYVHIDSEDQSPVVSAQMRKMRRESTKTLEILRQEFKDKDVQNKEDQSEQIQNPFVNTSSLVVGKSCLVNPKEKPNIDQTVVGITELKSNSSIKKRDINILDTIFGQPPSKKQKQFHKKEKKKQQKKLTNFKPIIDVPSQDKRNLRSNAPTKPKSIKVSKLRTDKKVTGEKSSPETAAEKVDDQTVRSNDEQAMSRATKEKCFPDVNEGKEITKDDAKVSLESKKNNETFVDSSVVEKHTPPDKDCNNCNITDILESTTVIDLQSPHGLSAPGQNTFTNKLQEQRYSSINHFSNELVRKISIINQELNKKILKELSEKYQKLFSELQDNFQNDTNEMLKFMGEIKDMMNLPEDQLVHAIRT
**Q.** B4 was tested. Which binding [2] did it give?
**A.** binds

B5: MBP-Red1 (1-362) WT (E. coli) (domain or fragment, UniProt P14291 1-362)
chain: MEGLKKKIFGVCLKNDLAQTRNETKGIHYGLMTLETSKQLQEFLHLLVIKREVIQNFELLFHIINVAVKITDSNLPSDDIWHFILKLRFSSEINIDEDSKVLNYLLETGIAMENPVSWKCLAVISSILSSVPQSKKIITNLIETEHAKKIGQLFDNIQDLQQGNFLVEILSNCFKKSASNSKKVEKIPQLWQSRSKNKFFFENEFYPFSSKNGSLQTCQFLCNNFMSTLSFTGILRQVSYSGSETLKNLRIFKKKDDENSYFIQCIYNKIYLWLDEKAPLEFERKKIRITKNLKNKIQIKLRQPFHECVRTTADKTALLFNKTKGFQLEFEDEKLGETFFHNVNNIPKISEVQNFLVLDYIE
**Q.** B5 was tested. Which binding [3] did it give?
**A.** binds

B6: MBP-Red1 (340-362), wild-type closure motif (peptide, UniProt P14291 340-362, looked up)
chain: FHNVNNIPKISEVQNFLVLDYIE
**Q.** Which binding [3] does the source give for B6 here?
**A.** binds

B7: 3HA-Red1 (full length, Red1 1-827), pGAL1::3HA-RED1 (protein, UniProt P14291 1-827)
chain: MEGLKKKIFGVCLKNDLAQTRNETKGIHYGLMTLETSKQLQEFLHLLVIKREVIQNFELLFHIINVAVKITDSNLPSDDIWHFILKLRFSSEINIDEDSKVLNYLLETGIAMENPVSWKCLAVISSILSSVPQSKKIITNLIETEHAKKIGQLFDNIQDLQQGNFLVEILSNCFKKSASNSKKVEKIPQLWQSRSKNKFFFENEFYPFSSKNGSLQTCQFLCNNFMSTLSFTGILRQVSYSGSETLKNLRIFKKKDDENSYFIQCIYNKIYLWLDEKAPLEFERKKIRITKNLKNKIQIKLRQPFHECVRTTADKTALLFNKTKGFQLEFEDEKLGETFFHNVNNIPKISEVQNFLVLDYIEEEPENEGEEEEQIGRADEQKEDEEEESLDELSTPMVYPIKSSIPHNHNEKVQLVTPDRSVSIRSDEWDLKSNTEDEEGNVLADLKISSTKETKRQTDYVHIDSEDQSPVVSAQMRKMRRESTKTLEILRQEFKDKDVQNKEDQSEQIQNPFVNTSSLVVGKSCLVNPKEKPNIDQTVVGITELKSNSSIKKRDINILDTIFGQPPSKKQKQFHKKEKKKQQKKLTNFKPIIDVPSQDKRNLRSNAPTKPKSIKVSKLRTDKKVTGEKSSPETAAEKVDDQTVRSNDEQAMSRATKEKCFPDVNEGKEITKDDAKVSLESKKNNETFVDSSVVEKHTPPDKDCNNCNITDILESTTVIDLQSPHGLSAPGQNTFTNKLQEQIYSSINHFSNELVRKISIINQELNKKILKELSEKYQKLFSELQDNFQNDTNEMLKFMGEIKDMMNLPEDQLVHAIRTRKFDNNKR
**Q.** For B7, which binding [4] is on record?
**A.** binds

B8: strep-Hop1 (full length, WT, E. coli) (protein, UniProt P20050 1-605)
chain: MSNKQLVKPKTETKTEITTEQSQKLLQTMLTMSFGCLAFLRGLFPDDIFVDQRFVPEKVEKNYNKQNTSQNNSIKIKTLIRGKSAQADLLLDWLEKGVFKSIRLKCLKALSLGIFLEDPTDLLENYIFSFDYDEENNVNINVNLSGNKKGSKNADPENETISLLDSRRMVQQLMRRFIIITQSLEPLPQKKFLTMRLMFNDNVDEDYQPELFKDATFDKRATLKVPTNLDNDAIDVGTLNTKHHKVALSVLSAATSSMEKAGNTNFIRVDPFDLILQQQEENKLEESVPTKPQNFVTSQTTNVLGNLLNSSQASIQPTQFVSNNPVTGICSCECGLEVPKAATVLKTCKSCRKTLHGICYGNFLHSSIEKCFTCIFGPSLDTKWSKFQDLMMIRKVFRFLVRKKKGFPASITELIDSFINVEDQNNEVKERVAFALFVFFLDETLCLDNGGKPSQTIRYVTSSVLVDVKGIVIPNTRKQLNVNHEYKWHFTTSSPKAESFYQEVLPNSRKQVESWLQDITNLRKVYSEALSPSSTLQELDLNSSLPTQDPIISGQKRRRYDLDEYLEEDKSSVVNDTIKAKDFDESVPAKIRKISVSKKTLKSNW
**Q.** With B8 as the molecule, how does the binding [5] read?
**A.** no binding
